Reference: the supplement of paper PMC9015667
Where a name gives a salt, the structure may show the parent alone. This is one part of the list. Many values rest on one well or one pass, so single values are uncertain.

Tests used:
Assay in all cases: reduction in cell viability relative to untreated/vehicle; higher = more growth inhibition
Conditions in all cases: 200 nM; 72 h
[1] = test system: M229P (parental melanoma line)
[2] = test system: M229R (matched melanoma line resistant to BRAF inhibitors)
[3] = test system: M238P (parental melanoma line)
[4] = test system: M238R (matched melanoma line resistant to BRAF inhibitors)
[5] = test system: M249P (parental melanoma line)
[6] = test system: M249R (matched melanoma line resistant to BRAF inhibitors)
[7] = test system: UACC62P (parental melanoma line)
[8] = test system: UACC62R (matched melanoma line resistant to BRAF inhibitors)

| Compound | reduction in cell viability [1] [%] | reduction in cell viability [2] [%] | reduction in cell viability [3] [%] | reduction in cell viability [4] [%] | reduction in cell viability [5] [%] | reduction in cell viability [6] [%] | reduction in cell viability [7] [%] | reduction in cell viability [8] [%] |
| --- | --- | --- | --- | --- | --- | --- | --- | --- |
| CC1(C)S[C@@H]2[C@H](NC(=O)[C@H](N)c3ccc(O)cc3)C(=O)N2[C@H]1C(=O)O [Amoxicillin sodium] | < 0 | < 0 | < 0 | < 0 | < 0 | < 0 | < 0 | < 0 |
| C#CCN[C@@H]1CCc2ccccc21 [Rasagiline mesylate] | < 0 | < 0 | < 0 | < 0 | < 0 | < 0 | < 0 | < 0 |
| O=C(O)Cc1cccc(OCCCN(Cc2cccc(C(F)(F)F)c2Cl)CC(c2ccccc2)c2ccccc2)c1 | < 0 | < 0 | < 0 | < 0 | < 0 | < 0 | < 0 | < 0 |
| C[C@@H](O)[C@H]1C(=O)N2C(C(=O)O)=C(S[C@@H]3CN[C@H](C(=O)N(C)C)C3)[C@H](C)[C@H]12 [Meropenem] | < 0 | < 0 | < 0 | < 0 | < 0 | < 0 | < 0 | < 0 |
| COc1ccc(Cc2ccc(NC(N)=O)cc2)cc1-c1cccc(Cl)c1 | < 0 | < 0 | < 0 | < 0 | < 0 | < 0 | < 0 | < 0 |
| O=C(/C=C/c1c(C(=O)O)[nH]c2cc(Cl)cc(Cl)c12)Nc1ccccc1 [Gavestinel sodium] | < 0 | < 0 | < 0 | < 0 | < 0 | < 0 | < 0 | < 0 |
| CCCCN1CCC(CNC(=O)c2c3n(c4ccccc24)CCCO3)CC1 [Piboserod hydrochloride] | < 0 | < 0 | < 0 | < 0 | < 0 | < 0 | < 0 | < 0 |
| Cc1ccccc1C(=O)c1ccc(Nc2ccc(Br)cc2N)cc1Cl | < 0 | < 0 | < 0 | < 0 | 6.15 | < 0 | 0.47 | < 0 |
| COc1nc(C)cnc1NS(=O)(=O)c1cccnc1-c1ccc(-c2nnco2)cc1 [Zibotentan] | < 0 | < 0 | < 0 | < 0 | < 0 | < 0 | < 0 | < 0 |
| COC(=O)[C@@H]1[C@H]2C[C@H]3c4[nH]c5ccccc5c4CCN3C[C@@H]2CC[C@@H]1O [Yohimbine] | < 0 | < 0 | < 0 | < 0 | < 0 | < 0 | < 0 | < 0 |
| Nc1cccc(-c2cc3c(Oc4cccc(O)c4)ncnc3[nH]2)c1 | < 0 | < 0 | < 0 | < 0 | < 0 | < 0 | < 0 | < 0 |
| COc1ccc(S(=O)(=O)Nc2cc(-c3c(O)ccc4ccccc34)c(O)c3ccccc23)cc1 | < 0 | < 0 | < 0 | < 0 | < 0 | < 0 | < 0 | < 0 |
| CCc1cnn2c(NCc3ccc[n+]([O-])c3)cc(N3CCCC[C@H]3CCO)nc12 | 43.5 | 64.3 | 70.4 | 51.1 | 69.3 | 78.8 | 60.3 | 62.2 |
| NC(=O)c1cccc2cn(-c3ccc([C@@H]4CCCNC4)cc3)nc12 [Niraparib] | < 0 | < 0 | < 0 | < 0 | 2.75 | < 0 | < 0 | < 0 |
| COc1nccc(-c2c(-c3ccc(F)cc3)ncn2C2CCNCC2)n1 | < 0 | < 0 | < 0 | < 0 | < 0 | < 0 | < 0 | < 0 |
| Oc1ccc(OCc2ccccc2)cc1 [Monobenzone] | < 0 | 7.58 | < 0 | < 0 | < 0 | 5.32 | < 0 | < 0 |
| CCOC(=O)c1ccc(OC(=O)CCCCCNC(=N)N)cc1 [Gabexate mesilate] | < 0 | < 0 | < 0 | < 0 | < 0 | < 0 | < 0 | < 0 |
| COc1ccccc1OCCNCC(O)COc1cccc2[nH]c3ccccc3c12 (centres undefined) [Carvedilol] | < 0 | < 0 | < 0 | < 0 | < 0 | < 0 | < 0 | < 0 |
| COc1cc(Nc2ncc3c(n2)-c2ccc(Cl)cc2C(c2c(F)cccc2OC)=NC3)ccc1C(=O)O [Alisertib] | < 0 | < 0 | 29.3 | 20.8 | < 0 | 12.5 | 22 | 67.5 |

Three structures already listed, arranged by SMILES length, largest number first:

| Compound | reduction in cell viability [1] [%] | reduction in cell viability [2] [%] | reduction in cell viability [3] [%] | reduction in cell viability [4] [%] | reduction in cell viability [5] [%] | reduction in cell viability [6] [%] | reduction in cell viability [7] [%] | reduction in cell viability [8] [%] |
| --- | --- | --- | --- | --- | --- | --- | --- | --- |
| COc1ccc(S(=O)(=O)Nc2cc(-c3c(O)ccc4ccccc34)c(O)c3ccccc23)cc1 | < 0 | < 0 | < 0 | < 0 | < 0 | < 0 | < 0 | < 0 |
| O=C(/C=C/c1c(C(=O)O)[nH]c2cc(Cl)cc(Cl)c12)Nc1ccccc1 [Gavestinel sodium] | < 0 | < 0 | < 0 | < 0 | < 0 | < 0 | < 0 | < 0 |
| CCCCN1CCC(CNC(=O)c2c3n(c4ccccc24)CCCO3)CC1 [Piboserod hydrochloride] | < 0 | < 0 | < 0 | < 0 | < 0 | < 0 | < 0 | < 0 |

The results go on:

| Compound | reduction in cell viability [1] [%] | reduction in cell viability [2] [%] | reduction in cell viability [3] [%] | reduction in cell viability [4] [%] | reduction in cell viability [5] [%] | reduction in cell viability [6] [%] | reduction in cell viability [7] [%] | reduction in cell viability [8] [%] |
| --- | --- | --- | --- | --- | --- | --- | --- | --- |
| CCN1CCC(n2cc(CNc3cc(Cl)c4ncc(C#N)c(Nc5ccc(F)c(Cl)c5)c4c3)nn2)CC1 [Wyeth Cot inhibitor-2] | < 0 | < 0 | < 0 | < 0 | < 0 | < 0 | < 0 | < 0 |
| O=C(O)[C@H](CC(=O)N1C[C@H]2CCCC[C@H]2C1)Cc1ccccc1 [Mitiglinide Calcium Dihydrate] | < 0 | < 0 | < 0 | < 0 | < 0 | < 0 | 4 | < 0 |
| CO[C@H]1C[C@@H]2CC[C@@H](C)[C@@](O)(O2)C(=O)C(=O)N2CCCC[C@H]2C(=O)O[C@H]([C@H](C)C[C@@H]2CC[C@@H](OC(=O)C(C)(CO)CO)[C@H](OC)C2)CC(=O)[C@H](C)/C=C(\C)[C@@H](O)[C@@H](OC)C(=O)[C@H](C)C[C@H](C)/C=C/C=C/C=C/1C [Temsirolimus] | 10 | 4.37 | 16.6 | 6.2 | 22.1 | 35 | 35 | 8.8 |
| Cc1cnc(C(=O)NCCc2ccc(S(=O)(=O)NC(=O)NC3CCCCC3)cc2)cn1 [Glipizide] | < 0 | < 0 | < 0 | < 0 | < 0 | < 0 | 0.58 | < 0 |
| CCC(C)n1ncn(-c2ccc(N3CCN(c4ccc(OCC5COC(Cn6cncn6)(c6ccc(Cl)cc6Cl)O5)cc4)CC3)cc2)c1=O (centres undefined) [Itraconazole] | < 0 | < 0 | < 0 | < 0 | < 0 | < 0 | < 0 | < 0 |
| CO[C@H]1/C=C/O[C@@]2(C)Oc3c(C)c(O)c4c(O)c(c5c(nc6cc(C)ccn65)c4c3C2=O)NC(=O)/C(C)=C\C=C\[C@H](C)[C@H](O)[C@@H](C)[C@@H](O)[C@@H](C)[C@H](OC(C)=O)[C@@H]1C [Rifaximin] | < 0 | < 0 | < 0 | < 0 | < 0 | < 0 | < 0 | < 0 |
| CC(C)(O)Cn1c(NC(=O)c2ccc(-c3cn[nH]c3)s2)nc2cc(CN3CCOCC3)ccc21 | 45.5 | 54.2 | 87.5 | 38.1 | 44.8 | 47.8 | 72.3 | 79.8 |
| CC(=O)[C@H]1CC[C@H]2[C@@H]3CCC4=CC(=O)CC[C@]4(C)[C@H]3CC[C@]12C [Progesterone] | < 0 | < 0 | < 0 | < 0 | < 0 | < 0 | < 0 | < 0 |
| CC1=NN(c2ccccc2)C(=O)C1 [Edaravone] | < 0 | < 0 | < 0 | < 0 | 4.39 | < 0 | 17.7 | 2.84 |
| COc1ccc2c(c1)c(C1=C(c3c[nH]c4ccccc34)C(=O)NC1=O)cn2CCCN(C)C | < 0 | < 0 | < 0 | < 0 | < 0 | < 0 | < 0 | < 0 |
| CCCNCC(O)COc1ccccc1C(=O)CCc1ccccc1 (centres undefined) [Propafenone hydrochloride] | < 0 | < 0 | < 0 | < 0 | < 0 | 5.75 | 11.1 | < 0 |
| COc1ccc2ccc(=O)oc2c1CC=C(C)C [Ostol] | < 0 | < 0 | < 0 | < 0 | < 0 | < 0 | < 0 | < 0 |
| Oc1ccc(C2CNCCc3c2cc(O)c(O)c3Cl)cc1 (centres undefined) [Fenoldopam] | < 0 | < 0 | < 0 | < 0 | < 0 | < 0 | < 0 | < 0 |
| O=C(O)c1cc(/N=N/c2ccc(S(=O)(=O)Nc3ccccn3)cc2)ccc1O [Sulfasalazine] | < 0 | < 0 | < 0 | < 0 | < 0 | < 0 | < 0 | < 0 |
| CC(C)n1cnc2c(NCCc3ccc(O)cc3)nc(-c3csc4ccccc34)nc21 [StemRegenin 1] | < 0 | < 0 | < 0 | < 0 | < 0 | < 0 | 14.5 | < 0 |
| C[C@H]1[C@H](NC(=O)/C(=N\OC(C)(C)C(=O)O)c2csc(N)n2)C(=O)N1S(=O)(=O)O [Aztreonam] | < 0 | < 0 | < 0 | < 0 | < 0 | < 0 | < 0 | < 0 |
| Cc1nc2cnc3ccc(C#Cc4cccnc4)cc3c2n1-c1ccc(C(C)(C)C#N)cc1 | 34.8 | 43.7 | 43 | 41.6 | 24.6 | 53.4 | 35.1 | 45.5 |
| Cc1nnc(C(C)C)n1C1C[C@H]2CC[C@@H](C1)N2CC[C@H](NC(=O)C1CCC(F)(F)CC1)c1ccccc1 (stereo in doubt) [Maraviroc] | < 0 | < 0 | < 0 | < 0 | < 0 | 5.16 | < 0 | < 0 |
| C[C@]12CC[C@@H]3c4ccc(O)cc4C[C@@H](CCCCCCCCC[S+]([O-])CCCC(F)(F)C(F)(F)F)[C@H]3[C@@H]1CC[C@@H]2O (some centres undefined) [Fulvestrant] | < 0 | < 0 | < 0 | < 0 | < 0 | 8.45 | 15.1 | < 0 |
